We go through 2 compounds from patent US11090275B2, “Compositions comprising cannabidiol and second therapeutic agents for the treatment of cancer” (JAY PHARMA, INC., priority 2015, dated 2021).

Format in all cases: cell-based
One assay deals with HL-60 cells. In words: XTT cell viability, HL-60 cells. The settings on record: Homo sapiens, 5% serum supplemented medium, 24h, read-out: IC 50, cell viability. The protocol: (§1) human HL-60, myeloblastic leukemia and CCRF-CEM, acute lymphoblastic leukemia cell line were cultured in RPMI-1640 supplemented with 10% (v/v) heat-inactivated fetal calf serum, 2 mM L-glutamine, 100U/ml penicillin and 100 μg/ml streptomycin. MCF-7, breast cancer and A-172, glioblastoma cell lines were cultured in DMEM supplemented with 10% (v/v) heat-inactivated fetal calf serum, 2 mM L-glutamine, 100U/ml penicillin and 100 μg/ml streptomycin. Cultures were maintained at 37° C. in a humidified atmosphere with 5% CO2 and maintained in exponential phase by transfer to fresh medium every 2-3 days. Experiments were conducted in serum free medium and 5% or 10% FCS medium. The trypanblue dye exclusion method was used for cell counting performed using a hemocytometer under light microscope.
On the technique in general: Tetrazolium assays rely on reduction of a dye to a coloured formazan, in cell work by metabolically active cells.

The subject of another assay is CCRF-CEM cells. The assay can be described thus: XTT cell viability, CCRF-CEM cells. The conditions noted are these: Homo sapiens, 5% serum supplemented medium, 24h, read-out: IC 50, cell viability. On the procedure:
as §1

The next assay relates to MCF-7 cells. The assay can be described thus: XTT cell viability, MCF-7 cells. The settings on record: Homo sapiens, MCF7; 5% serum containing medium, 24h; read-out: IC 50, cell viability. The protocol: as §1

On to `CCN(CC)CCOc1ccc(C(=C(Cl)c2ccccc2)c2ccccc2)cc1` [clomiphene], for which the IC50 in the assay with HL-60 cells was determined as 14 µM; in the assay on CCRF-CEM cells, 15 µM.
Consider `CC/C(=C(\c1ccccc1)c1ccc(OCCN(C)C)cc1)c1ccccc1` [tamoxifen], for which the figures for the IC50 in the assay on HL-60 cells, with CCRF-CEM cells and in the assay with MCF-7 cells were 12 µM, 16 µM and 12 µM, respectively.
